About 2,100 (0.66%) of roughly 320,000 compounds were called active. Inconclusive results, whose numbers are uncertain, are shown with a selection of clear calls. Calls come from the whole dose curve; as a rule, active = well fitted inhibition curve with a large enough effect in the signal ratio, with a control signal flat (not every such curve was filed as active); inconclusive = small, poorly fitted or top-dose-only effect, or effect the other way, or a change in a side signal; inactive = flat fitted curve, though single readings scatter; the % refers to the signal ratio. A potency beside an inconclusive call is a rough fit, not a confirmed value.
assay: qHTS Assay for Lipid Storage Modulators in Drosophila S3 Cells; conditions: BODIPY lipid droplet fluorescence, 18-24 h, cells fed with added oleic acid; lipid storage change, negative = inhibition: at 46.1 µM (top of the series) unless noted
From the text: NIH Molecular Libraries Probe Production Centers Network [MLPCN] NIH Chemical Genomics Center [NCGC] MLPCN Grant: 1 R03 MH085686-01 Assay Submitter (PI): Beller, Mathias; Max-Planck-Institut fur Biophysikalische Chemie NCGC Assay Overview: Storing lipids as a reservoir for energy or the anabolism of elementary metabolites is a common feature of probably all cells and is conserved from bacteria to humans. The universal cellular lipid storage organelle is the so-called lipid storage droplet (LD). Although ubiquitous, LDs share a simple structure composed of a hydrophobic core that harbors the storage lipids, which is shielded by a droplet-specific phospholipid monolayer to which proteins are attached. The current model of LD biogenesis involves an incorporation of the lipid core into the membrane leaflets of the endoplasmic reticulum (ER) followed by a subsequent budding-like maturation of a LD, which ultimately pinches off. Once released, LD volume can increase by localized lipogenesis or fusion of existing droplet. Storage lipids are re-mobilized enzymatically by lipase activity. Lipase regulation in the adipocyte is heavily studied and involves multiple components including catecholamine signaling, the LD-associated proteins Perilipin and comparative gene identification (CGI-58) and at least two lipases named hormone sensitive lipase (HSL) and adipocyte triglyceride lipase (ATGL). LD regulation outside of the adipocyte is poorly understood and only few components are known. However, there is an urgent need to learn more about ectopic fat depots as mislocalized storage of lipids, for example in the liver or muscle, is an eminent health problem associated with insulin resistance or the metabolic syndrome. We developed a laser-scanning cytometer assay to enable 1,536-well screening and combined the results of the small molecules screen with an RNAi database based on lipid storage.
Triacsin C (Sigma-Aldrich T-4540), an inhibitor of long-chain fatty acyl CoA synthetase that blocks synthesis of triglycerides, was used as a positive control for lipid under-storage. A total of 23 nL of compound solution of different concentrations were transferred to the assay plates using a Kalypsys pin tool equipped with a 1,536-pin array containing 10-nL slotted pins (FP1S10, 0.457-mm diameter, 50.8 mm long; V&P Scientific). One microliter of oleic acid (400 uM) was added, and the plate was lidded with stainless steel rubber gasket lined lids containing pinholes. […] Fluorescence was detected by excitation of the fluorophores with a 488-nm laser on an Acumen Explorer (TTP Lab Tech). The total intensity in channel 2 (500-530 nm) reflected lipid droplet accumulation. Cells were detected using channel 3 (575-640 nm) with 5-um width and 100-um depth filters. The ratio of the number of objects in PMT channel 2 over the number of objects in PMT channel 3 was also calculated. Percent activity was computed relative to an internal control (100% inhibited lipid droplet deposition due to the presence of 20 uM Triacsin C), which was added to 32 wells/plate.
% is set by controls: 0 for no effect and ±100 for the full control effect; potency is the fitted concentration of half-maximal effect.

Potency, inconclusive:
O=C(CNc1cc([N+](=O)[O-])ccc1NCCO)Nc1cccc(S(=O)(=O)N2CCCCC2)c1 2.31 µM [activator, full curve]
Cc1cc(Nc2ccc3ccccc3c2)n2ncnc2n1 4.11 µM [activator, partial curve]
O=C(O)CCCC(=O)Nc1ccc(N2CCCC2)cc1 3.66 µM [falling, full curve]
COc1ccc(/C=C/CN2CCC(Oc3ccc(C(=O)N4CCCCC4)cc3)CC2)cc1 29.1 µM [activator, single point]
CC(=O)Nc1ccc(-c2cc(-c3ccccc3)nc(-c3ccccc3)n2)cc1 7.31 µM [falling, partial curve, poor fit]
Cc1ccc(C(=O)NCC(=O)NCCCc2ccccc2)s1 18.4 µM [activator, partial curve]
COc1ccc(Cl)cc1NC(=O)CCc1ccccc1 0.116 µM [rising, full curve, poor fit]
COc1cc2nc3occc3c(OC)c2cc1OC 0.082 µM [activator, full curve]
CCOC(=O)c1cccc(NS(=O)(=O)c2c(C(=O)N3CCCCCC3)c(C)n(C)c2C)c1 29.1 µM [falling, single point]
Cc1ccc(NC(=O)[C@@H](NC(=O)c2cccc(S(=O)(=O)N3CCOCC3)c2)C(C)C)cc1C 4.11 µM [falling, partial curve]

Copied from the results shown for reference:
Potency, inconclusive:
COc1ccc(Cl)cc1NC(=O)CCc1ccccc1 0.116 µM [rising, full curve, poor fit]
COc1cc2nc3occc3c(OC)c2cc1OC 0.082 µM [activator, full curve]

Following part.

Lipid storage change, negative = inhibition, inactive:
COc1cc(NC2c3ccccc3C(=O)N2c2ccc(C)cn2)cc(OC)c1OC (stereo not given) 1.47%
Cc1ccc(N=Cc2ccc(O)cc2O)cc1F 28.9%
O=C(NN1CCOCC1)c1cccc(Cl)c1 -1.82%

Lipid storage change, negative = inhibition, inconclusive:
O=C(Cc1ccc(Cl)cc1)NC1CCCN(Cc2ccccc2F)C1 (stereo not given) 22.3%
CNS(=O)(=O)c1cccc(C(=O)OCCCOC(=O)c2cccc(S(=O)(=O)NC)c2)c1 61.7%
Cn1c(=O)c2cn3ncccc3c2n(C)c1=O 1.6%
Cc1ccccc1OCC(=O)Nc1ccc(C(N)=O)cc1 -17.9%
O=C(NCc1ccc(F)cc1)c1noc2c1CCCCC2 38.1%
CC(NC(=O)CCCc1ccccc1)c1ccncc1 (stereo not given) -31.7%
CCCNC(=O)c1ccc(CN2CCc3ccccc3C2)cc1 14.8%
CCCCNC(=O)CSc1nnc(NC(C)=O)s1 -7.67%
c1ccc(N2CCN(c3nc4ccccc4n4cnnc34)CC2)cc1 -12.2%
O=[N+]([O-])c1ccc(Cl)c(S(=O)(=O)Nc2ccc(-c3ccc(N4CCCC4)nn3)cc2)c1 36.7%
CCOc1ccc(NCc2nnc(SCC(=O)Nc3cc(C)on3)n2-c2ccccc2OC)cc1 1.37%
CCN(CC)C(=O)CSc1nnc(CSc2ncccn2)n1C -35.1%
COc1ccc(-c2cnn(-c3ccccc3)c2N)cc1OC 23.1%
CCN(CC)S(=O)(=O)c1c(Br)cc(C)cc1Br -3.77%
Cc1csc(NC(=O)CSc2nnc(NC(=O)C3CC(=O)N(c4ccccc4)C3)s2)n1 (stereo not given) 8.22%
O=S(=O)(c1cccs1)N1CN(Cc2cccs2)c2nc3ccccc3nc21 7.97%
Cc1cccc(C(C)C)c1NC(=O)COC(=O)C1CC(=O)N(Cc2ccccc2)C1 (stereo not given) 7.06%
O=C(c1cc(COc2cccc(C(F)(F)F)c2)on1)N1CCC(c2ccccc2)CC1 2.99%
O=C(CSc1ccc2nnc(-c3cccnc3)n2n1)NCc1ccco1 25.3%
O=C(Nc1ccccc1C(=O)O)c1cc(S(=O)(=O)N2CCCCCC2)ccc1Cl 110%
COc1ccc(C2Nc3ccccc3C(=O)N2NC(C)=O)c(OC)c1 (stereo not given) 31.8%
O=C(COc1cc(F)ccc1[N+](=O)[O-])Nc1cc(S(=O)(=O)N2CCCC2)ccc1Cl
O=C(CCC1CCCCC1=O)c1ccccc1 (stereo not given) -32.3% [at 0.0737 µM]
Oc1ccc(Cn2ccnc2)c2cccnc12 -25.6%
CCOc1ccc(-c2nc(CSCC(=O)N3CCN(C(=O)c4ccco4)CC3)c(C)o2)cc1 -21.7% [at 9.22 µM]
COc1ccc(C(=O)NCCN2CCOCC2)cc1S(=O)(=O)Nc1ccc(C)cc1 42.3%

outcome, inactive:
COc1ccc(NC2CCCN(C(=O)c3ccc4nc(C)c(C)nc4c3)C2)cc1OC (stereo not given) inactive [at 46.1 µM]
